Changes are numbered by the printed parent chain. No constants are given. Whether binding was seen depends on the method and setting. Binding seen in cells or lysates may run through a third protein. Binding calls can cover weak binding; strength is not graded here. For some assays here: Sequences can lack the tags named with a protein.
Assays:
Assay in all cases: co-IP; anti-FLAG M2 magnetic beads; lysates of HCT116 or HEK293T cells stably expressing the FLAG-HA-tagged bait; 50 mM Tris-HCl pH 7.5, 150 mM NaCl, 0.5% NP-40 alternative, 1 mM DTT, 4 h at 4 °C; washes with 400 mM NaCl; immunoblot of endogenous prey
[1] = biological target: HsPEX39-FLAG-HA (C-terminally FLAG-HA-tagged human PEX39) (human) (UniProt Q5I0X4)
[2] = biological target: T1, PEX7-FLAG-HA (C-terminally FLAG-HA-tagged human PEX7) (human) (UniProt O00628)
T1 sequence: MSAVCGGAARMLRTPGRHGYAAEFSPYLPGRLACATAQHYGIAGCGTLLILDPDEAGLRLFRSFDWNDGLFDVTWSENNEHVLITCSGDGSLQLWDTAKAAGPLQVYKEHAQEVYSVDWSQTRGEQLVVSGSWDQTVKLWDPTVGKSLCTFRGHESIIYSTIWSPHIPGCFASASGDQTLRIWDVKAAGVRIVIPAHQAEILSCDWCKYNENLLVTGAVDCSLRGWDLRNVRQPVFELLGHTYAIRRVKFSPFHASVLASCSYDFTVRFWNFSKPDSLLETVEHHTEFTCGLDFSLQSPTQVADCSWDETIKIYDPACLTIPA

Sequences of proteins named here, by UniProt entry; tags and fusion partners are left off. A change or cut given only in a name is not applied to a line headed by its entry.
UniProt Q5I0X4: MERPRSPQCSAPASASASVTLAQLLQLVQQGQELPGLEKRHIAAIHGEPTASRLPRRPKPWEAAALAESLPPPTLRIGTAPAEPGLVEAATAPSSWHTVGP
UniProt O14832: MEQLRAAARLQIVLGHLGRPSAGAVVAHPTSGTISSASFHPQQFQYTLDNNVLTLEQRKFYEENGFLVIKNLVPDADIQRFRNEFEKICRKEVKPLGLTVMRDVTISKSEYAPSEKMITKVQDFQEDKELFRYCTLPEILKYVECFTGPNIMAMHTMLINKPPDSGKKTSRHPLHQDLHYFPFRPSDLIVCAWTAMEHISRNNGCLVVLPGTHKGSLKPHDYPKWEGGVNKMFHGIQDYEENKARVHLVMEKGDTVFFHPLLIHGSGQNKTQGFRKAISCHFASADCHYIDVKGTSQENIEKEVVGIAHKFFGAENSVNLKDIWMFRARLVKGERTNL
UniProt P09110: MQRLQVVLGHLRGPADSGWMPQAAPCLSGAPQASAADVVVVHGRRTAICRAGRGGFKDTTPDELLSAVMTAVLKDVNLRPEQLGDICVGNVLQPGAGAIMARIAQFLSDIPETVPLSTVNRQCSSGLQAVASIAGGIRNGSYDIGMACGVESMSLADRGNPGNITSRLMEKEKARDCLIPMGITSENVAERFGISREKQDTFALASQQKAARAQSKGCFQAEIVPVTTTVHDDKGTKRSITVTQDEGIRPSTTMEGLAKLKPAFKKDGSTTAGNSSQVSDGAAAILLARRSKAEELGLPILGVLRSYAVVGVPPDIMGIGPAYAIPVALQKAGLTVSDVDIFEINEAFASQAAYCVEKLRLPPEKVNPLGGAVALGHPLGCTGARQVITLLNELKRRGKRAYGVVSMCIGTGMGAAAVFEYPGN
UniProt O00116: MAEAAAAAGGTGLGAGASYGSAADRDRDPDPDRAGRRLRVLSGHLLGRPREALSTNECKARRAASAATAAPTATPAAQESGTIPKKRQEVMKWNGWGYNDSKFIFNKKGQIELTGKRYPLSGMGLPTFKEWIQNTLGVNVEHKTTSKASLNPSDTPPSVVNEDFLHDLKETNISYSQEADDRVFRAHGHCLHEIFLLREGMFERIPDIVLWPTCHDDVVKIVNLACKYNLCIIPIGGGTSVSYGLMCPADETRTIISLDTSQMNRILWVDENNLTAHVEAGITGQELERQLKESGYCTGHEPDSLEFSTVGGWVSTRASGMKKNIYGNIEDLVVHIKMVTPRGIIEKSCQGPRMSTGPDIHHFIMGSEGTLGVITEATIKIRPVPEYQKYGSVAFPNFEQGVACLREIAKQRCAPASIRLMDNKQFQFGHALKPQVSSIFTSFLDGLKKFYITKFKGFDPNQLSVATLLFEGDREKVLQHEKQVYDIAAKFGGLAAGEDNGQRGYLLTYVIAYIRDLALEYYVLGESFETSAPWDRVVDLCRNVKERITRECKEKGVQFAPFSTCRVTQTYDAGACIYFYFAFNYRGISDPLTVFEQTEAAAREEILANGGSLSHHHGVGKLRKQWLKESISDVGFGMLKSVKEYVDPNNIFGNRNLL
UniProt Q92968: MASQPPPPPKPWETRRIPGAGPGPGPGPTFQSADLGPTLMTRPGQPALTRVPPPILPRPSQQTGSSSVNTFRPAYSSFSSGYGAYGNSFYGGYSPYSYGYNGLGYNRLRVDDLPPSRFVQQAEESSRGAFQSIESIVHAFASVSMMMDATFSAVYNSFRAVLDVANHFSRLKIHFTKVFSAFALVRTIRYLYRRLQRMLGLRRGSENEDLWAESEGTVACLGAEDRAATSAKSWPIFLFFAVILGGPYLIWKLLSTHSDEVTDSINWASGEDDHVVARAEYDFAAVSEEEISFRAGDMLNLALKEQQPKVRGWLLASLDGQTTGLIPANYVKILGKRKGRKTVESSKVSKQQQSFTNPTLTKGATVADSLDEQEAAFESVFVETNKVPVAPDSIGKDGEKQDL

[3] = biological target: T2, PEX7(E77A)-FLAG-HA (human) (UniProt O00628)
T2 sequence: T1 sequence with E77A

[4] = biological target: PHYH-FLAG-HA (C-terminally FLAG-HA-tagged human PHYH) (human) (UniProt O14832)
[5] = biological target: ACAA1-FLAG-HA (C-terminally FLAG-HA-tagged human ACAA1) (human) (UniProt P09110)

endogenous ACAA1 (precursor form) (from UniProt P09110)
binding [1]: binds
binding [2]: binds

endogenous AGPS (precursor form) (from UniProt O00116)
binding [1]: binds
binding [3]: binds
binding [2]: binds

endogenous HsPEX13 (from UniProt Q92968 1-403)
binding [4]: binds
binding [5]: binds

endogenous HsPEX39 (C6ORF226) (from UniProt Q5I0X4 1-101)
binding [5]: binds

Reference: PMC12339391
